In the experiment the target is T1, ectopically expressed HSF1 with different tags (HA-HSF1 and Flag-HSF1), Q00613.
T1 chain: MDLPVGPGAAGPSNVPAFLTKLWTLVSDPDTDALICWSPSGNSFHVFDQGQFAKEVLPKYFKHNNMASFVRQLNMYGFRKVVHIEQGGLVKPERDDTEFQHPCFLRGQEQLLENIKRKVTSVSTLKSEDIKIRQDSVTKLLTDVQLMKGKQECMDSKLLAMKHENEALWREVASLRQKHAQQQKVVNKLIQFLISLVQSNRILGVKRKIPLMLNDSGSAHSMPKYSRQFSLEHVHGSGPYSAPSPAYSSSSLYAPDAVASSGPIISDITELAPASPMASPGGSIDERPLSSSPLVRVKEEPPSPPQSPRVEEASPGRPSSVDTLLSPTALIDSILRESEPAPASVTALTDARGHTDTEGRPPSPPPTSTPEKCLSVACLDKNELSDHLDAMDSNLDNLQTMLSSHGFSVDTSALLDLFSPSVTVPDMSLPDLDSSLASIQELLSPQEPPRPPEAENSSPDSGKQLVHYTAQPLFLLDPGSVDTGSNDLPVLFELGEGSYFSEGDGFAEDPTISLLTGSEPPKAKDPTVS
Kind of experiment: co-IP; HA-HSF1 and Flag-HSF1 co-expressed in PANC-1 and PaTu8988 cells for 48 h; with BAP1 knock-out (interaction increased) or BAP1 overexpression (interaction attenuated). Conditions: remark: other sources report otherwise.

Results are given in words; binding and its absence hold for the method and conditions named. In cells and extracts the contact can be indirect. Some binding calls cover weakened binding; strength is not graded here. Tags and fused reporters may be left off the sequences shown.

B1: ectopically expressed HSF1 with different tags (HA-HSF1 and Flag-HSF1), Q00613 1-529 (protein)
chain: MDLPVGPGAAGPSNVPAFLTKLWTLVSDPDTDALICWSPSGNSFHVFDQGQFAKEVLPKYFKHNNMASFVRQLNMYGFRKVVHIEQGGLVKPERDDTEFQHPCFLRGQEQLLENIKRKVTSVSTLKSEDIKIRQDSVTKLLTDVQLMKGKQECMDSKLLAMKHENEALWREVASLRQKHAQQQKVVNKLIQFLISLVQSNRILGVKRKIPLMLNDSGSAHSMPKYSRQFSLEHVHGSGPYSAPSPAYSSSSLYAPDAVASSGPIISDITELAPASPMASPGGSIDERPLSSSPLVRVKEEPPSPPQSPRVEEASPGRPSSVDTLLSPTALIDSILRESEPAPASVTALTDARGHTDTEGRPPSPPPTSTPEKCLSVACLDKNELSDHLDAMDSNLDNLQTMLSSHGFSVDTSALLDLFSPSVTVPDMSLPDLDSSLASIQELLSPQEPPRPPEAENSSPDSGKQLVHYTAQPLFLLDPGSVDTGSNDLPVLFELGEGSYFSEGDGFAEDPTISLLTGSEPPKAKDPTVS
As to B1, the binding entry is listed as “binds”.

The values are drawn from paper PMC11441124.
